Measurements taken from PubChem BioAssay AID587 (National Center for Advancing Translational Sciences (NCATS), 2007).
The campaign covered roughly 59,000 compounds. About 35 (0.06%) were called active. Inconclusive means that the source gave no clear call. Such entries were picked first, then a sample of the others. No stated cut-off is given here; in the data, active means max dye-equivalent concentration above about 10 nM; inconclusive means between about 1.1 nM and that limit; inactive means weaker than that.

Assay: qHTS Assay for Spectroscopic Profiling in Texas Red Spectral Region
Settings: Compound fluorescence, Texas Red channel, 547/618 nm; hits give high values
Summary of the method: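 Compound titrations in 100 mM Tris pH 8.0 were incubated 15 min at room temperature and read at 547 nm excitation / 618 nm emission. Texas Red six-point standard curve on each plate converted fluorescence to dye-equivalent concentration.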

Compound	max dye-equivalent concentration
CC(=O)Nc1nc2ccccc2n1CCOc1ccccc1	inconclusive: 1.2 nM
OCCN(CCO)c1ncnc2nc[nH]c12	inactive
COc1ccc(-n2c(SCC#N)nnc2-c2ccc(NS(=O)(=O)c3ccc(C)cc3)cc2)cc1	inconclusive: 1.1 nM
CCC(=O)N=C1SC2CS(=O)(=O)CC2N1c1cccc(OC)c1 (stereo not drawn)	inconclusive: 2.1 nM
CCC(=O)Nc1nc2ccccc2n1Cc1ccccc1	inconclusive: 2.3 nM
COc1ccc(C2(C(=O)Nc3ccc(C(=O)N4CCOCC4)cc3)CCOCC2)cc1	inconclusive: 1.5 nM
Cn1c(/C(C#N)=C/C2CC=CCC2)nc2ccccc21 (stereo not drawn)	inconclusive: 1.5 nM
CC(C)(C)C1=Nn2c(nnc2-c2ccccc2F)SC1	inconclusive: 2.6 nM
COc1cccc(-c2ccc(=O)n(CC(=O)NCCN3CCOCC3)n2)c1	inconclusive: 1.3 nM
NC1=CC(=O)c2cccc3cccc1c23	inactive
C(/C=C\c1ccccc1)=Nc1ccc2c(c1)Cc1ccccc1-2	inactive
CN(C)c1ncc2nc(-c3cccs3)c(=O)n(C)c2n1	inactive
O=C(CN(Cc1cccs1)C(=O)CNC(=O)c1ccco1)NC1CCCCC1	inconclusive: 1.6 nM
CCc1ccc(-c2nn[nH]n2)cc1	inconclusive: 1.6 nM
O=S(=O)(O)c1cc(O)c2c(O)c(N=Nc3cccc4ccccc34)c(S(=O)(=O)O)cc2c1	inconclusive: 1.3 nM
O=C(Nc1cccc2cccnc12)[C@@H]1[C@@H](C(=O)O)[C@H]2CC[C@@H]1O2	inactive
COc1cccc2c1[C@H](CO)N1[C@H](C#N)[C@@H]3C[C@H](C(=O)O)[C@@H]([C@@H]1C2)N3C	inactive
Cc1cccc(NC(=O)CSc2nnc(CCCCCNC(=O)OC(C)(C)C)o2)c1C	inconclusive: 1.6 nM
Cc1sc2ncn(CC(=O)N(CC(=O)NC3CCCC3)Cc3cccs3)c(=O)c2c1C	inconclusive: 1.3 nM
Cc1ccc(-n2c(C)nc3oc4ccccc4c(=O)c3c2=O)cc1	inconclusive: 1.6 nM

Looked up above.
Entry for CC(=O)Nc1nc2ccccc2n1CCOc1ccccc1 under max dye-equivalent concentration: inconclusive: 1.2 nM
Entry for O=C(Nc1cccc2cccnc12)[C@@H]1[C@@H](C(=O)O)[C@H]2CC[C@@H]1O2 under max dye-equivalent concentration: inactive

(listing goes on)

Compound	max dye-equivalent concentration
CCN1C(=S)SC(=O)C1=C1C=C(C)N(CCO)C(C)=C1	inactive
Cc1noc(C)c1Cn1nc(C(=O)O)c2ccccc2c1=O	inconclusive: 1.5 nM
CCCN1CN(Cc2ccccc2)CC2=C1CC(C)(C)CC2=O	inconclusive: 1.2 nM
N#Cc1c(/N=C/c2cccs2)sc2c1CCC2	inactive
O=C(Nc1ccc2c(c1)OCCO2)C1CCC1	inconclusive: 1.4 nM
N#Cc1c(/N=C/c2ccco2)sc2c1CCCCC2	inactive
CCOC(=O)CN=C1CC(C)(C)CC2=C1Sc1ncnc(N(C)C)c1N2	inactive
O=C1CCCN1CCC1CCN(C2CC(=O)N(c3ccc(Cl)cc3)C2=O)CC1 (stereo not drawn)	inconclusive: 1.1 nM
Cc1ccc(C2C3CN(C(C)C)CC=C3C(C#N)=C(N)C2(C#N)C#N)cc1 (stereo not drawn)	inactive
Brc1ccc(-c2nn3c(-c4ccncc4)nnc3s2)o1	inconclusive: 1.9 nM
Cc1cccc(OCc2nnc(N)s2)c1	inconclusive: 1.1 nM
O=C(c1cccc(F)c1)N1CCN(CC2CC3C=CC2C3)CC1 (stereo not drawn)	inconclusive: 3.3 nM
CC1(C)C(=O)N(CCN2CCC(C(=O)c3ccc(F)cc3)CC2)c2ccccc21	inconclusive: 1.3 nM
CN(Cc1cc(C(C)(C)C)cc(Br)c1O)Cc1cc(C(C)(C)C)cc(Br)c1O	inactive
OC(COc1ccc(OCc2ccccc2)cc1)CN1CCOCC1 (stereo not drawn)	inconclusive: 1.3 nM
Nn1cnnc1SCC(=O)Nc1ccc2c(c1)OCCO2	inconclusive: 2 nM
CCNc1nc(NC(C)(C)C)nc(SC(C(C)=O)C(C)=O)n1	inconclusive: 1.8 nM
CCC(C)NC(=O)Cn1c(=O)n(-c2ccccc2)c(=O)c2ccc(C(=O)NCc3ccco3)cc21 (stereo not drawn)	inconclusive: 1.1 nM
O=C(CN1CCN(Cc2ccccc2)CC1)c1c[nH]c2ccccc12	inconclusive: 1.2 nM
O=C(Nc1cccc(NC(=O)c2cccs2)c1)c1ccco1	inconclusive: 1.7 nM

Structural class: those above containing a carbonyl joined to an NH by a bond outside any ring.
Compound	max dye-equivalent concentration
CC(=O)Nc1nc2ccccc2n1CCOc1ccccc1	inconclusive: 1.2 nM
CCC(=O)Nc1nc2ccccc2n1Cc1ccccc1	inconclusive: 2.3 nM
COc1ccc(C2(C(=O)Nc3ccc(C(=O)N4CCOCC4)cc3)CCOCC2)cc1	inconclusive: 1.5 nM
COc1cccc(-c2ccc(=O)n(CC(=O)NCCN3CCOCC3)n2)c1	inconclusive: 1.3 nM
O=C(CN(Cc1cccs1)C(=O)CNC(=O)c1ccco1)NC1CCCCC1	inconclusive: 1.6 nM
O=C(Nc1cccc2cccnc12)[C@@H]1[C@@H](C(=O)O)[C@H]2CC[C@@H]1O2	inactive
Cc1cccc(NC(=O)CSc2nnc(CCCCCNC(=O)OC(C)(C)C)o2)c1C	inconclusive: 1.6 nM
Cc1sc2ncn(CC(=O)N(CC(=O)NC3CCCC3)Cc3cccs3)c(=O)c2c1C	inconclusive: 1.3 nM
O=C(Nc1ccc2c(c1)OCCO2)C1CCC1	inconclusive: 1.4 nM
Nn1cnnc1SCC(=O)Nc1ccc2c(c1)OCCO2	inconclusive: 2 nM
CCC(C)NC(=O)Cn1c(=O)n(-c2ccccc2)c(=O)c2ccc(C(=O)NCc3ccco3)cc21 (stereo not drawn)	inconclusive: 1.1 nM
O=C(Nc1cccc(NC(=O)c2cccs2)c1)c1ccco1	inconclusive: 1.7 nM

Remaining list, next part

Compound	max dye-equivalent concentration
COc1ccc(S(=O)(=O)NC2CCCCC2)c(C)c1C	inconclusive: 1.1 nM
COc1ccc(CC(=O)NC2CCN(CC(=O)Nc3ccc4c(c3)OCCO4)CC2)cc1OC	inconclusive: 1.1 nM
CC1CCC(NC(=O)CN2C(=O)C3CCCN3c3ncc(Cl)cc32)CC1 (stereo not drawn)	inconclusive: 3 nM
Nc1ncnc2c1nc(Br)n2[C@@H]1O[C@H]2COP(=O)(O)O[C@@H]2[C@H]1O	inactive
O=C(c1csnn1)N1CCC2(CC1)CN(c1cccc(-c3ccccc3)c1)C2	inactive
COC(=O)C(Cc1ccc(O)cc1)NC(=O)C(C)Oc1ccccc1 (stereo not drawn)	inconclusive: 2.4 nM
COCCNC(=O)C(c1cccc(OC)c1)N(C(=O)Cn1nnc2ccccc21)c1cccnc1 (stereo not drawn)	inconclusive: 3 nM
COCCn1c(=O)c(-c2cc(F)cc(F)c2)nc2cnc(N3CCNCC3)nc21	inactive
COc1cc(NC(=O)CSc2nc3ccccc3c(=O)n2C)ccc1NC(=O)c1ccco1	inconclusive: 1.9 nM
O=c1oc2ccccc2c(O)c1C=NCc1ccccn1	inconclusive: 1.5 nM
O=C(NCc1ccccc1)NC1(C(=O)Nc2ccc3c(c2)OCCO3)CCCCC1	inconclusive: 1.6 nM
NC(=O)c1c(-c2ccccc2)oc2ccc(O)cc12	inconclusive: 2.2 nM
CCOC(=O)C1CCN(C(=O)C2CCN(S(=O)(=O)c3cc(Cl)ccc3Cl)CC2)CC1	inconclusive: 1.1 nM
COc1ccc2nc(N3CCC(C)CC3)c(C#N)cc2c1	inactive
OC[C@@H]1O[C@@H](n2cnc3c(NCCc4ccccc4)ncnc32)[C@@H](O)[C@H]1O	inactive
FC(F)(F)c1nc2ncc(Cl)cc2[nH]1	inactive
COc1ccccc1N(C(=O)c1ccco1)C(C(=O)NC1CCCC1)c1cccnc1 (stereo not drawn)	inconclusive: 2.2 nM
Fc1ccccc1CSc1nnc(Cn2cnc3ccccc32)n1-c1ccccc1	inconclusive: 3.1 nM
